Results on 17 compounds are retold here after PubChem BioAssay AID330 (DTP/NCI, 2004).

The list is a part of this screen's results and no random one: it gathers tests that were run many times, whatever their T/C, doses with no T/C, and many T/C values between a quarter and a half above the control. Other doses and runs of a compound stand elsewhere. T/C gives the treated animals as a percentage of the vehicle group. Some entries give survivors of the animals treated and no T/C: the source holds a T/C of zero for them, seemingly a mark for toxic or unscored doses. Some doses without a T/C left all or most animals alive at the check, yet need not have been tolerated: the source hardly ever lists a survival T/C far under the control, and the zero likely stands for such cases as well. Counts of survivors are from the toxicity check (mostly the fifth day) where no day follows; animals may have died later. Schedule codes are those of the source, taken here to give the interval after Q, in days (D) or hours (H), and the number of doses after X. Some schedules carry Z or #; the key to these is not given. For survival time, the PubChem record calls one and a half times the control and up active, and a quarter to a half above the control has no call in these data; cut-offs in other NCI protocols can differ. Some T/C values are followed by the survivors on the day toxicity was checked, most often the fifth; without a count, all were alive then. Some doses were run more than once; the values are given in rising order.

In this assay the test system is P388 leukemia ip, CD2F1 mice, survival T/C. Description: NCI In Vivo Anticancer Drug Screen. Data for tumor model P388 Leukemia (intraperitoneal) in CD2F1 (CDF1) mice. Conditions: T/C endpoint: median survival time, higher T/C = longer survival.
[1] abbreviates: dose: 240.0 mg/kg/injection, schedule: Q01DX005 (ip), vehicle: saline with Tween-80.
[2] abbreviates: dose: 50.0 mg/kg/injection, schedule: Q01DX005 (ip), vehicle: Klucel (hydroxypropylcellulose) (HPC).
[3] abbreviates: dose: 100.0 mg/kg/injection, schedule: Q01DX005 (ip), vehicle: Klucel (hydroxypropylcellulose) (HPC).
[4] abbreviates: dose: 200.0 mg/kg/injection, schedule: Q01DX005 (ip), vehicle: Klucel (hydroxypropylcellulose) (HPC).
The mark [5] stands for this setting: dose: 400.0 mg/kg/injection, schedule: Q04DX003 (ip), vehicle: saline with Tween-80.
The mark [6] stands for this setting: dose: 25.0 mg/kg/injection, schedule: Q01DX009 (ip), vehicle: saline with Tween-80.
Where [7] appears, read: dose: 50.0 mg/kg/injection, schedule: Q01DX009 (ip), vehicle: saline with Tween-80.
Setting [8] is: dose: 200.0 mg/kg/injection, schedule: Q01DX009 (ip), vehicle: saline with Tween-80.

For `CCN(CC)CCCC(C)Nc1c2ccc(Cl)cc2nc2ccc(OC)cc12` (configuration not stated), the T/C (dose: 12.0 mg/kg/injection, schedule: Q03HX024 (ip), vehicle: saline with Tween-80) was 126 % of control; the T/C (dose: 32.0 mg/kg/injection, schedule: Q01DX009 (ip), vehicle: saline with Tween-80) is 127 % of control; the T/C (dose: 64.0 mg/kg/injection, schedule: Q01DX009 (ip), vehicle: saline with Tween-80) was 127 [5 of 6 alive] and 148 % of control; the T/C (dose: 160.0 mg/kg/injection, schedule: Q04DX003 (ip), vehicle: saline with Tween-80) is 125 % of control. Also, the survivor count was 5 of 6 (dose: 64.0 mg/kg/injection, schedule: Q#A X018 (ip), vehicle: saline with Tween-80); 3 of 6 (dose: 128.0 mg/kg/injection, schedule: Q01DX009 (ip), vehicle: saline with Tween-80); 4 of 6 (dose: 128.0 mg/kg/injection, schedule: Q#A X018 (ip), vehicle: saline with Tween-80); 4 of 6 (dose: 192.0 mg/kg/injection, schedule: Q04DX003 (ip), vehicle: saline with Tween-80); 0 of 6 (dose: 256.0 mg/kg/injection, schedule: Q01DX009 (ip), vehicle: saline with Tween-80); 0 of 6 (dose: 256.0 mg/kg/injection, schedule: Q01DX009 (ip), vehicle: suspension in saline). Moreover, the survivor count is reported as 1 of 6 (dose: 287.0 mg/kg/injection, schedule: Q01DX001 (ip), vehicle: saline with Tween-80); 0 of 6 (dose: 320.0 mg/kg/injection, schedule: Q04DX003 (ip), vehicle: saline with Tween-80); 2 of 6 (dose: 384.0 mg/kg/injection, schedule: Q04DX003 (ip), vehicle: saline with Tween-80); 0 of 6 (dose: 575.0 mg/kg/injection, schedule: Q01DX001 (ip), vehicle: saline with Tween-80); 0 of 6 (dose: 768.0 mg/kg/injection, schedule: Q04DX003 (ip), vehicle: saline with Tween-80); 0 of 6 (dose: 1150.0 mg/kg/injection, schedule: Q01DX001 (ip), vehicle: saline with Tween-80). Moreover, under “dose: 2300.0 mg/kg/injection, schedule: Q01DX001 (ip), vehicle: saline with Tween-80”, the survivor count was 0 of 6.
Consider `O=C1OC(OC/C(Br)=C(/Br)COC2OC(=O)C(Cl)=C2Cl)C(Cl)=C1Cl` (configuration not stated), for which, under setting [1], the survivor count is recorded as 0 of 6.
Take `O=C(O)C1=C(C(=O)O)CCC1`: the survivor count (dose: 200.0 mg/kg/injection, schedule: Q01DX009 (ip), vehicle: distilled water + Tween-80) is 0 of 6 and the survivor count (dose: 400.0 mg/kg/injection, schedule: Q01DX009 (ip), vehicle: distilled water + Tween-80) is given as 0 of 6.
As for `CC1c2c(cc(OC(=O)c3cccc(S(=O)(=O)F)c3)nc2OC(=O)c2cccc(S(=O)(=O)F)c2)C(=O)N1Cc1ccccc1` (configuration not stated), the survivor count is, setting by setting: (dose: 50.0 mg/kg/injection, schedule: Q01DX009 (ip), vehicle: Klucel (hydroxypropylcellulose) (HPC)) 6 of 6; (dose: 100.0 mg/kg/injection, schedule: Q01DX009 (ip), vehicle: Klucel (hydroxypropylcellulose) (HPC)) 6 of 6; (dose: 200.0 mg/kg/injection, schedule: Q01DX009 (ip), vehicle: Klucel (hydroxypropylcellulose) (HPC)) 6 of 6.
Regarding `CC[N+]1(CC)CCCCC1`, the survivor count was 1 of 6 (dose: 50.0 mg/kg/injection, schedule: Q01DX009 (ip), vehicle: saline); 1 of 6 (dose: 100.0 mg/kg/injection, schedule: Q01DX009 (ip), vehicle: saline); 0 of 6 (dose: 200.0 mg/kg/injection, schedule: Q01DX009 (ip), vehicle: saline).
Regarding `COc1cc2cnc3c4cc(OC)c(OC)cc4c(O)cc3c2cc1OC`, the survivor count is, setting by setting: under setting [2], 0 of 5; under setting [3], 3 of 5; under setting [4], 0 of 5.
`C=C1CC2(CCOc3ccc(Cl)cc32)OC1=O` (configuration not stated): the survivor count under setting [5] was 5 of 6.
For `Clc1ccc2c(NCCCC3CCCN4CCCCC34)ccnc2c1` (configuration not stated), the survivor count under setting [4] is on record as 0 of 6.
With `O=NN(CCBr)C(=O)Nc1ccccc1`, the T/C reads like this: (dose: 3.0 mg/kg/injection, schedule: Q01DX009 (ip), vehicle: saline with Tween-80) 145 % of control; (dose: 12.5 mg/kg/injection, schedule: Q01DX009 (ip), vehicle: saline with Tween-80) 145 % of control; (dose: 16.5 mg/kg/injection, schedule: Q01DX009 (ip), vehicle: saline with Tween-80) 133 % of control; under setting [6], 141 % of control; under setting [7], 140 % of control; (dose: 100.0 mg/kg/injection, schedule: Q04DX003 (ip), vehicle: saline with Tween-80) 131 % of control [5 of 6 alive]. Further, the survivor count reads like this: under setting [6], 6 of 6; under setting [7], 6 of 6; (dose: 100.0 mg/kg/injection, schedule: Q01DX009 (ip), vehicle: saline with Tween-80) 5 of 6; (dose: 200.0 mg/kg/injection, schedule: Q04DX003 (ip), vehicle: saline with Tween-80) 6 of 6; under setting [5], 3 of 6.
Turning to `O=S(/N=C/c1ccccc1)c1ccc(Cl)cc1` (configuration not stated), the survivor count under setting [8] was 6 of 6.
In the case of `COc1ccc(CN2C(=O)C(Cl)=C(Cl)C2=O)c(OC)c1`, the survivor count under setting [1] is on record as 0 of 6.
For the compound `O=c1cc(-c2ccccc2)ss1`, the survivor count (dose: 400.0 mg/kg/injection, schedule: Q01DX009 (ip), vehicle: other) is 3 of 6.
Consider `CC(/C=C/c1ccc2c(c1)OCO2)=N\NC(N)=S`, for which the survivor count is 1 of 6 (dose: 12.5 mg/kg/injection, schedule: Q01DX005 (ip), vehicle: saline with Tween-80); 0 of 6 (dose: 25.0 mg/kg/injection, schedule: Q01DX005 (ip), vehicle: saline with Tween-80); 0 of 6 (dose: 50.0 mg/kg/injection, schedule: Q01DX005 (ip), vehicle: saline with Tween-80); 0 of 6 (dose: 100.0 mg/kg/injection, schedule: Q01DX005 (ip), vehicle: saline with Tween-80); 0 of 6 (dose: 200.0 mg/kg/injection, schedule: Q01DX005 (ip), vehicle: saline with Tween-80).
For the compound `FC(F)(F)SN1CN(SC(F)(F)F)CN(SC(F)(F)F)CN(SC(F)(F)F)CN(SC(F)(F)F)C1`, where the note is “dose: 240.0 mg/kg/injection, schedule: Q01DX005 (ip), vehicle: saline”, the survivor count is listed as 5 of 6.
As to `CCCCN=Cc1c(OC(C)=O)c(OC(C)=O)c(C(C)C)c2cc(C)c(-c3c(C)cc4c(C(C)C)c(OC(C)=O)c(OC(C)=O)c(C=NCCCC)c4c3OC(C)=O)c(OC(C)=O)c12`, the survivor count under setting [2] was 6 of 6, the survivor count under setting [3] was 6 of 6 and the survivor count under setting [4] is listed as 6 of 6.
As to `Nc1nc2nc[nH]c2c(=O)[nH]1`, the survivor count by setting is: under setting [8], 6 of 6; (dose: 400.0 mg/kg/injection, schedule: Q01DX009 (ip), vehicle: saline with Tween-80) 0 of 6; (dose: 800.0 mg/kg/injection, schedule: Q01DX009 (ip), vehicle: saline with Tween-80) 0 of 6; (dose: 800.0 mg/kg/injection, schedule: Q01DX009 (ip), vehicle: suspension in saline) 0 of 6; (dose: 1600.0 mg/kg/injection, schedule: Q01DX009 (ip), vehicle: saline with Tween-80) 0 of 6; (dose: 1600.0 mg/kg/injection, schedule: Q01DX009 (ip), vehicle: suspension in saline) 0 of 6.
For the compound `COc1ccc(CCNC2=C(/C=C\C(=O)O)C(=O)CC2)cc1OC`, the survivor count is, setting by setting: (dose: 200.0 mg/kg/injection, schedule: Q01DX001 (ip), vehicle: Klucel (hydroxypropylcellulose) (HPC)) 6 of 6; (dose: 400.0 mg/kg/injection, schedule: Q01DX001 (ip), vehicle: Klucel (hydroxypropylcellulose) (HPC)) 5 of 6.
